Results reported in paper PMC7081254.
No constants are given. Whether binding was seen depends on the method and setting. In cells and extracts the contact can be indirect. Some binding calls cover weakened binding; strength is not graded here. Sequences can lack the tags named with a protein.

Protein sequences, listed by entry. Tags and fused reporters are not part of them. Lines headed by an entry give the natural chain unless they say otherwise; changes in a name come on top.
UniProt P19785: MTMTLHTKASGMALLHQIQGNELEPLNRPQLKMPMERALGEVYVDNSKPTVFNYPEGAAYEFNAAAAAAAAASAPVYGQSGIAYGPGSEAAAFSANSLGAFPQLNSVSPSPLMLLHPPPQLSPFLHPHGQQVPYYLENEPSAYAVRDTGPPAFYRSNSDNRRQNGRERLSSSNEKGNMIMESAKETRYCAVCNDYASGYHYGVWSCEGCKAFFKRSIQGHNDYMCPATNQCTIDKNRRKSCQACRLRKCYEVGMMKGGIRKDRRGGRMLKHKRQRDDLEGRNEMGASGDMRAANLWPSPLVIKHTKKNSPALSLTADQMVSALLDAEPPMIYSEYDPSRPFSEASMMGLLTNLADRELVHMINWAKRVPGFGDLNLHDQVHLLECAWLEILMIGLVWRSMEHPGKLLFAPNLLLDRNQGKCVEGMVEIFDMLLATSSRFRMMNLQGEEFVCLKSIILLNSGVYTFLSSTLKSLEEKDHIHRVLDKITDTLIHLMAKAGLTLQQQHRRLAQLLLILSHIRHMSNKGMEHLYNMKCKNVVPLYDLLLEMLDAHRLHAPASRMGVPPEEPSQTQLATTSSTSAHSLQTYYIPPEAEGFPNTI

Tests used:
[1] = target: EYFP-tagged ERα S216D (mouse) (UniProt P19785); experiment: co-IP; Flag-CAR co-expressed with EYFP-ERα forms in Huh7 cells with 10 nM 17β-estradiol for 24 h; whole cell lysates in IP buffer (20 mM Tris-HCl pH 7.5, 250 mM NaCl, 1% Triton-X 100, 10% glycerol); anti-GFP agarose, 4 °C overnight; blot with anti-FLAG
[2] = target: EYFP-tagged ERα S216D (mouse) (UniProt P19785); experiment: co-IP; FLAG-RORα WT or S100D co-expressed with EYFP-ERα WT or S216D and with CAR WT in Huh7 cells; whole cell lysates precipitated with αGFP-resin; blot with αGFP or αFLAG

B1: Flag-tagged CAR (constitutive active/androstane receptor, NR1I3) (protein, UniProt Q14994 1-352)
chain: MASREDELRNCVVCGDQATGYHFNALTCEGCKGFFRRTVSKSIGPTCPFAGSCEVSKTQRRHCPACRLQKCLDAGMRKDMILSAEALALRRAKQAQRRAQQTPVQLSKEQEELIRTLLGAHTRHMGTMFEQFVQFRPPAHLFIHHQPLPTLAPVLPLVTHFADINTFMVLQVIKFTKDLPVFRSLPIEDQISLLKGAAVEICHIVLNTTFCLQTQNFLCGPLRYTIEDGARVSPTVGFQVEFLELLFHFHGTLRKLQLQEPEYVLLAAMALFSPDRPGVTQRDEIDQLQEEMALTLQSYIKGQQRRPRDRFLYAKLLGLLAELRSINEAYGYQIQHIQGLSAMMPLLQEICS
**Q.** How did the binding [1] turn out when B1 was run?
**A.** binds

B2: FLAG-tagged RORα S100D (protein, UniProt P35398 1-523)
chain: MESAPAAPDPAASEPGSSGADAAAGSRETPLNQESARKSEPPAPVRRQSYSSTSRGISVTKKTHTSQIEIIPCKICGDKSSGIHYGVITCEGCKGFFRRDQQSNATYSCPRQKNCLIDRTSRNRCQHCRLQKCLAVGMSRDAVKFGRMSKKQRDSLYAEVQKHRMQQQQRDHQQQPGEAEPLTPTYNISANGLTELHDDLSNYIDGHTPEGSKADSAVSSFYLDIQPSPDQSGLDINGIKPEPICDYTPASGFFPYCSFTNGETSPTVSMAELEHLAQNISKSHLETCQYLREELQQITWQTFLQEEIENYQNKQREVMWQLCAIKITEAIQYVVEFAKRIDGFMELCQNDQIVLLKAGSLEVVFIRMCRAFDSQNNTVYFDGKYASPDVFKSLGCEDFISFVFEFGKSLCSMHLTEDEIALFSAFVLMSADRSWLQEKVKIEKLQQKIQLALQHVLQKNHREDGILTKLICKVSTLRALCGRHTEKLMAFKAIYPDIVRLHFPPLYKELFTSEFEPAMQIDG
**Q.** With B2 as the binder, how does the binding [2] read?
**A.** binds
